Measurements as given in publication PMC6851287.
Results are given in words; binding and its absence hold for the method and conditions named. In cells and extracts the contact can be indirect. Some results given as binding are weak or reduced against the parent protein; the word gives no strength.

Amino acid sequences for entries named in this document (tags omitted). Residues count along the entry.
UniProt P19838, residues 1-433: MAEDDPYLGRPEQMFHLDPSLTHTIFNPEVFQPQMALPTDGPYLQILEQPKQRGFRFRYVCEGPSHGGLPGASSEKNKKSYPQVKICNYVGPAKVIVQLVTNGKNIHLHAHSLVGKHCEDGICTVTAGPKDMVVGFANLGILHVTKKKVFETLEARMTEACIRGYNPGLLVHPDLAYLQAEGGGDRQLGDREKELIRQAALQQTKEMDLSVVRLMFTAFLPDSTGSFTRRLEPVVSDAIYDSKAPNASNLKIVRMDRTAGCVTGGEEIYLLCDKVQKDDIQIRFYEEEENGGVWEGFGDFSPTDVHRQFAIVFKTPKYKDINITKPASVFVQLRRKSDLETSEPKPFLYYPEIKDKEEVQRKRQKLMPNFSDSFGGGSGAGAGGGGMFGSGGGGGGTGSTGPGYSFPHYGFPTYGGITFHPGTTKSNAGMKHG
UniProt Q04206: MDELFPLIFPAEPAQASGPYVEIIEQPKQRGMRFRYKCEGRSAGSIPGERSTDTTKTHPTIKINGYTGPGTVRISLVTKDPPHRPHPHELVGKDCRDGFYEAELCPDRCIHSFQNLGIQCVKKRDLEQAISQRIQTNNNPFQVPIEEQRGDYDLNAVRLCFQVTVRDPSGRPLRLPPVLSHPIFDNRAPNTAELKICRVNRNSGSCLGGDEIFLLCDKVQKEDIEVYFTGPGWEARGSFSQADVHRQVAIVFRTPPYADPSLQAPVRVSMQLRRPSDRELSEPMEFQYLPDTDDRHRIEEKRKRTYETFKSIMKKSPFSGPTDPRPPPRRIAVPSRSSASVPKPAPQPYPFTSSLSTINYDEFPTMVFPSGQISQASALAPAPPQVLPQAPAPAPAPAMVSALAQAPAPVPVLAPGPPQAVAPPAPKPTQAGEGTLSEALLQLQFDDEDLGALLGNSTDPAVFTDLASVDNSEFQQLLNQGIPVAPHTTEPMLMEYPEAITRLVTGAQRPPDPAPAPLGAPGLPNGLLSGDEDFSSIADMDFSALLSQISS

Target: NFKB1 p50 (human (endogenous in primary monocyte-derived macrophages)) (UniProt P19838)
Experiment: co-IP; 50 μg anti-NFKB1 immobilised on coupling gel (Pierce coimmunoprecipitation kit), incubated with 50 μg of cytoplasmic or nuclear fractions of macrophages left uninfected or infected with HIV for 10 days; also nuclear extracts of uninfected macrophages treated with Tat, gp120 or RNA40 for 24 h; Western blot with anti-RELA or anti-RELB

binding: binds
Substance: RELA (from UniProt Q04206 1-551)
